The target of the assay is T1, recombinant RABL2 (isoform 2), conjugated to agarose (mouse) (UniProt E9Q9D5).
T1 sequence: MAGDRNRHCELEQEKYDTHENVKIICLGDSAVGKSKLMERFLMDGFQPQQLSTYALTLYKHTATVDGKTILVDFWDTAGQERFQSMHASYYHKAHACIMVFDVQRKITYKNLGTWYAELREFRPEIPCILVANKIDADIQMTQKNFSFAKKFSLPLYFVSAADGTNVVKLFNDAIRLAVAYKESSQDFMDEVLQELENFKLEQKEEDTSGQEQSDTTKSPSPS
Description: pull-down; additional GTP-RABL2 and GDP-RABL2 affinity column eluates from adult mouse testis extracts, Western blotting for candidate effector proteins; only the target purified.

Chains of the proteins cited; added tags and fusions are not shown.
UniProt P48722: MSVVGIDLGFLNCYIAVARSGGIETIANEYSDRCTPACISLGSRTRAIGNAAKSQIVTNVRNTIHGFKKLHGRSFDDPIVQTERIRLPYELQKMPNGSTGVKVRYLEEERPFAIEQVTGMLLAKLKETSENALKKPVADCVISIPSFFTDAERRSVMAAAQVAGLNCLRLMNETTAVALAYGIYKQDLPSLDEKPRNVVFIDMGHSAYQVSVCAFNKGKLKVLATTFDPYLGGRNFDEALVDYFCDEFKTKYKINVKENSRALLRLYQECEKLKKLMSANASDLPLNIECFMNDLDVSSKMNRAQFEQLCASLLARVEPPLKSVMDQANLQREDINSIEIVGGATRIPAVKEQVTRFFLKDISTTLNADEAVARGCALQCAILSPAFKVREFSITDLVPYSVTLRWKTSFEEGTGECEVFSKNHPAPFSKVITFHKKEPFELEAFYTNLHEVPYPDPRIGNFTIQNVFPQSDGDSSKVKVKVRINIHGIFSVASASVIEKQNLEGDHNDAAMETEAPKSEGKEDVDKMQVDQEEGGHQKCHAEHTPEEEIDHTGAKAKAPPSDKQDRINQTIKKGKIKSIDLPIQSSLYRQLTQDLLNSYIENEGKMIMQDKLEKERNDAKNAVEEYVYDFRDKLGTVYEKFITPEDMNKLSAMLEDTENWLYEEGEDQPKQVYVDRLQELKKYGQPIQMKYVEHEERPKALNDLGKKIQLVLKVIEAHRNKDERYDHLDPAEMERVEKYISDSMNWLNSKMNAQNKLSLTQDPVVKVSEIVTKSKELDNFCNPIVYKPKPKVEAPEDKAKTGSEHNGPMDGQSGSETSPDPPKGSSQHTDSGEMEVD
UniProt P00342: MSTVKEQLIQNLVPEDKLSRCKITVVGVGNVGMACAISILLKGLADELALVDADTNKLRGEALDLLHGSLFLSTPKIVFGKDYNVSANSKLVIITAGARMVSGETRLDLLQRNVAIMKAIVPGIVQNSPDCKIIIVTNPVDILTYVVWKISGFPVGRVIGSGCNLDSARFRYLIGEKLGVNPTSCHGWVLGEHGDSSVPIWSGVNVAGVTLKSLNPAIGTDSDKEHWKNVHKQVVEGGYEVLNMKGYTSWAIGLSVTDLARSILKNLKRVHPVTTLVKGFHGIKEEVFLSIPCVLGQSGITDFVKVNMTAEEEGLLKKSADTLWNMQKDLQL

These are yes or no findings as the source states them, for the method shown. In cells and extracts the contact can be indirect. Some entries that bind do so weakly or less than the wild type.

Regarding HSPA4L (from UniProt P48722 1-838), the binding entry was “binds”.
The same measure for LDHC (from UniProt P00342 1-332): “binds”.

These data come from paper PMC3464206.
